Laboratory results from PMC7819943, “Rice protein-binding microarrays: a tool to detect cis-acting elements near promoter regions in rice”.
This is one part of the list.

These sequences were tested against T1, OsSMF1 (Oryza sativa, UniProt Q6ZLB0 1-436) (assay: protein-binding microarray (RPBM); PBS, 2% BSA, 51.3 ng/ul salmon testes DNA, 50 uM zinc acetate, 200 nM TF, 25 C, 1 h; high values mean tight binding). Details: protein: recombinant; tags: N-terminal polyhistidine and DsRed monomer fusion (pET32a); chain copies: 2; label: CyDye5-dUTP incorporated in the synthesized complementary strand; 3' TTTTT single-stranded linker to array surface; dsDNA, one strand shown.
T1 sequence: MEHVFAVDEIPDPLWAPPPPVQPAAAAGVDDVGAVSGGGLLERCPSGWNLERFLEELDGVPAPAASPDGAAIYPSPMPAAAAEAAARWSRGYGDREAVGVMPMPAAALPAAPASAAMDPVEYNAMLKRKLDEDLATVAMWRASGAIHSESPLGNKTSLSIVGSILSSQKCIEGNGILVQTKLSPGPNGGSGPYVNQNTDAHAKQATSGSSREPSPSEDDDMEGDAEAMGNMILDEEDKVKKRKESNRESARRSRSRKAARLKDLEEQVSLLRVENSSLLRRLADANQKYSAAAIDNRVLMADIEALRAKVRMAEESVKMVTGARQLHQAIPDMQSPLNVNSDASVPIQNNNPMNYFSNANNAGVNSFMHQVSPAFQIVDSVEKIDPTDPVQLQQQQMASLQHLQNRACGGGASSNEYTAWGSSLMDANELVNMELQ
Summary of the method: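 Binding signal is reported as fluorescence intensity per feature (arbitrary units) from an Axon 4000B scanner. Incubation used 200 nM of each Ni–NTA-purified, N-terminally polyhistidine- and DsRed-fused transcription factor from E. coli BL21-CodonPlus on a double-stranded custom Agilent array for 1 h at 25 °C, with 50 µM zinc acetate in the buffer, followed by washing.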
With “CTCAACCATTACAAGTGTCATGTCCCTAGTGTTGTAGTGGCGGAGTCACCTAGTGCAG” the binding signal was 3650 fluorescence intensity (a.u.). For “TCCTGACGGGATGGGGCGAGGCGTGCGTCAGATCGCCTGTCGGAGTCACCTAGTGCAG”, the binding signal was 5180 fluorescence intensity (a.u.). “TGACTGACTGACCAGTGACCACAGCCCCGGTTAGCTGGCGCGGAGTCACCTAGTGCAG” was tested, and the binding signal was 35800 fluorescence intensity (a.u.). In the case of “TCAGTAAAGTCTCTTCTCTTGCTCATGCTAGCCCTGTCATCGGAGTCACCTAGTGCAG”, the binding signal is reported as 3930 fluorescence intensity (a.u.). “TGTAGGCGTACACTTCACAGATTTGGCACCGGGGCTCCACCGGAGTCACCTAGTGCAG” was tested, and the binding signal was 4730 fluorescence intensity (a.u.). For “ATGGAGCCCCTCTCGACACGTGCGTGCTAATGTTCGATTACGGAGTCACCTAGTGCAG”, the binding signal was 4020 fluorescence intensity (a.u.). With “CCGGCGGCAAGCGGCACGGAGGCCGCCGCCGCCTCTGACGCGGAGTCACCTAGTGCAG” the binding signal was 3360 fluorescence intensity (a.u.). For “GCTATGTGTCTTGTGTGTCATTGTTACACATATGGAGATGCGGAGTCACCTAGTGCAG”, the binding signal was 4540 fluorescence intensity (a.u.). “AATTCCTGGTGTTAAGCTCTGTGTGGTGTGTGCTCCTATTCGGAGTCACCTAGTGCAG” was tested, and the binding signal was 4390 fluorescence intensity (a.u.). “GATCAGATCGCACGCTGAGACGTATAGACGACGTGGGTCCCGGAGTCACCTAGTGCAG” was tested, and the binding signal was 4650 fluorescence intensity (a.u.). In the case of “CTAAATGTTACATACGCGTTGGTGGGGCCGGGGCGGCAGTCGGAGTCACCTAGTGCAG”, the binding signal is reported as 3920 fluorescence intensity (a.u.). “TAGGAGTAGTACTGACTCACTGCCTACCACTACTAGTCTCCGGAGTCACCTAGTGCAG” was tested, and the binding signal was 6950 fluorescence intensity (a.u.). For “GTGGAGGGTGGGGTGACGTGGTTTCCGGGTTGGTGCAATGCGGAGTCACCTAGTGCAG”, the binding signal was 34600 fluorescence intensity (a.u.). “CTATCGCGAATAGGGGCTTCGTTGTAATTGGATATAGGCCCGGAGTCACCTAGTGCAG” was tested, and the binding signal was 3320 fluorescence intensity (a.u.). With “TGCTTGTCAGACTCAGATAACTTCAATTAACTGTCTACGACGGAGTCACCTAGTGCAG” the binding signal was 4210 fluorescence intensity (a.u.). For “GGTGAGTGAGAGGGAGGTCGACGGGTGGCAAGCAATTTTCCGGAGTCACCTAGTGCAG”, the binding signal was 14100 fluorescence intensity (a.u.). For “ACCTTCAGGGCAAGAGCTATAGCTAAGCTACTGTGTCACCCGGAGTCACCTAGTGCAG”, the binding signal was 3360 fluorescence intensity (a.u.). For “TCCTGCCAGACCGCCCGCGCCGTCATGTTATCGTCATTTTCGGAGTCACCTAGTGCAG”, the binding signal was 3500 fluorescence intensity (a.u.). In the case of “GCCGGATCGAACTCATCAGCATCAGCACATCTCTCTTCTCCGGAGTCACCTAGTGCAG”, the binding signal is reported as 3680 fluorescence intensity (a.u.). With “CAACGTACACCACTAGGTGTGCACGCATGCAGTTCCTTGACGGAGTCACCTAGTGCAG” the binding signal was 4330 fluorescence intensity (a.u.). For “CCGGCACGGCCCGAGGCGTGTTGGGCCGTGCCTGGGCCGTCGGAGTCACCTAGTGCAG”, the binding signal was 3270 fluorescence intensity (a.u.). In the case of “TTGCATCTTTCTCTTTCGCTTTGCCGTGTCAACGCGAACACGGAGTCACCTAGTGCAG”, the binding signal is reported as 4560 fluorescence intensity (a.u.). With “ATTGCAGTCCAACTCACCACTGACTGGAAACCAAATACTACGGAGTCACCTAGTGCAG” the binding signal was 5900 fluorescence intensity (a.u.). With “TAATACCTTCTGCGGTGCCATGTTCAGCAGCAACCTCATTCGGAGTCACCTAGTGCAG” the binding signal was 3310 fluorescence intensity (a.u.). In the case of “CGCACGGCCGCTACATGCCCACGTCGTTCTCGCCTCGCTACGGAGTCACCTAGTGCAG”, the binding signal is reported as 3440 fluorescence intensity (a.u.). “TTTGAATCAAAGGAATGGATCTTATGGAATCCTATAAAATCGGAGTCACCTAGTGCAG” was tested, and the binding signal was 40400 fluorescence intensity (a.u.). In the case of “TCCGAATTTGGGCGTGTCCTGGTCTCCTGGACACGGCAAACGGAGTCACCTAGTGCAG”, the binding signal is reported as 3290 fluorescence intensity (a.u.). With “AAAGAATGGGAATTACAAACTGGTGACAATGATATTATGCCGGAGTCACCTAGTGCAG” the binding signal was 3570 fluorescence intensity (a.u.). “ATTGAGAGTGGTTTAGCGCCTACGTGGCAGTTTGACTTGGCGGAGTCACCTAGTGCAG” was tested, and the binding signal was 19000 fluorescence intensity (a.u.). For “GCCAAGTCGACACGTGGCTCTCCTCCTCCGAATTCAGAAGCGGAGTCACCTAGTGCAG”, the binding signal was 11300 fluorescence intensity (a.u.). For “AAGAACTAGCACCTATGAATCCTCGTAGGTGCGTGTGCCACGGAGTCACCTAGTGCAG”, the binding signal was 4200 fluorescence intensity (a.u.). In the case of “CAAACTCCAAGTCAATCCTGACGATCCAGACAGGCAGACACGGAGTCACCTAGTGCAG”, the binding signal is reported as 3300 fluorescence intensity (a.u.). For “GTATCCAGACCAGGAAAAGACAAAGGGCTGGTGATCTCCACGGAGTCACCTAGTGCAG”, the binding signal was 16600 fluorescence intensity (a.u.). In the case of “ACACGAGAAGATGTCAGCATCCGCTTCAATCTGCGTCGCACGGAGTCACCTAGTGCAG”, the binding signal is reported as 4150 fluorescence intensity (a.u.). For “GCTCTGACACACTTGACACTGCACGCGCGTGCGCGACAATCGGAGTCACCTAGTGCAG”, the binding signal was 3510 fluorescence intensity (a.u.). “CGTTATTGTTGCAGCAAACTGAAACGTGACGCTAATGTTGCGGAGTCACCTAGTGCAG” was tested, and the binding signal was 4310 fluorescence intensity (a.u.). “GAATGTATGAAGCTGTCACCAACCCGAAGCACCGGGTTTGCGGAGTCACCTAGTGCAG” was tested, and the binding signal was 4290 fluorescence intensity (a.u.). For “GATAAATTTCTATGTCAGAGTATCCTTTTATCACTATATGCGGAGTCACCTAGTGCAG”, the binding signal was 3340 fluorescence intensity (a.u.). In the case of “GGGCTTCGTCCCCATCATCTCCTGCCACCTCAAACACCTGCGGAGTCACCTAGTGCAG”, the binding signal is reported as 3520 fluorescence intensity (a.u.). With “AACCGGTACAATGTAATTAAATAGTGTCACCACCTTACTACGGAGTCACCTAGTGCAG” the binding signal was 3960 fluorescence intensity (a.u.). In the case of “GTGGCGGTGGTGGGAGTAGTGCGTCAGCCGCCGCCGCCGGCGGAGTCACCTAGTGCAG”, the binding signal is reported as 5500 fluorescence intensity (a.u.). With “CCGCCCGAGCTGGCCAGCTCGTCTCCTTCGTCATCAGCACCGGAGTCACCTAGTGCAG” the binding signal was 5070 fluorescence intensity (a.u.).
